Source: patent US20060172360A1
Results are given in words; binding and its absence hold for the method and conditions named. For part of these data: In cells and extracts the contact can be indirect. Some results given as binding are weak or reduced against the parent protein; the word gives no strength. Where a sequence is shown, tags or fusion partners need not be part of it.

By UniProt entry, the sequences of proteins in these tests, tags left out.
UniProt O14733: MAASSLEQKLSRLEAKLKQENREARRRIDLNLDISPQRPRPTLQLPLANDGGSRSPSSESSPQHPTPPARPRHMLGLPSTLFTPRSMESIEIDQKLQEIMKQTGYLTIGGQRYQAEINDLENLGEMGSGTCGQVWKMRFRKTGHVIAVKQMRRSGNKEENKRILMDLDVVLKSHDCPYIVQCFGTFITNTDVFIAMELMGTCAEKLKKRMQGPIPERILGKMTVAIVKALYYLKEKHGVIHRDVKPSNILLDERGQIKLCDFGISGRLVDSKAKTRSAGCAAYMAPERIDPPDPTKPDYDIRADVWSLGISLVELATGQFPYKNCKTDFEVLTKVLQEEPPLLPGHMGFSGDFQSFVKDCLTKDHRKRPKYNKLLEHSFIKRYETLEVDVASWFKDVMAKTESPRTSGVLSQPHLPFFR

Key:
[1] = target: FLAG-MKK7 (human MAP kinase kinase 7 ligated with FLAG-tag at its N-terminus) (human) (UniProt O14733); test: co-expression in HEK293T cells, immunoprecipitation with anti-HA affinity matrix, western blot with anti-FLAG M2
[2] = target: FLAG-MKK7 (human MAP kinase kinase 7 ligated with FLAG-tag at its N-terminus) (human) (UniProt O14733); test: summary of co-immunoprecipitation and kinase assays
[3] = target: FLAG-MKK7 (human MAP kinase kinase 7 ligated with FLAG-tag at its N-terminus) (human) (UniProt O14733); test: co-immunoprecipitation and western blot (FIG. 7)

Measured: binding

B1: HA-JIK (human JNK/SAPK-inhibitory kinase ligated with HA-tag at its N-terminus) (enzyme, UniProt Q9H2K8 1-898, looked up, not shown: small tags and cut ends)
chain: MRKGVLKDPEIADLFYKDDPEELFIGLHEIGHGSFGAVYFATNAHTSEVVAIKKMSYSGKQTHEKWQDILKEVKFLRQLKHPNTIEYKGCYLKEHTAWLVMEYCLGSASDLLEVHKKPLQEVEIAAITHGALHGLAYLHSHALIHRDIKAGNILLTEPGQVKLADFGSASMASPANSFVGTPYWMAPEVILAMDEGQYDGKVDIWSLGITCIELAERKPPLFNMNAMSALYHIAQNDSPTLQSNEWTDSFRRFVDYCLQKIPQERPTSAELLRHDFVRRDRPLRVLIDLIQRTKDAVRELDNLQYRKMKKILFQETRNGPLNESQEDEEDSEHGTSLNREMDSLGSNHSIPSMSVSTGSQSSSVNSMQEVMDESSSELVMMHDDESTINSSSSVVHKKDHVFIRDEAGHGDPRPEPRPTQSVQSQALHYRNRERFATIKSASLVTRQIHEHEQENELREQMSGYKRMRRQHQKQLIALENKLKAEMDEHRLKLQKEVETHANNSSIELEKLAKKQVAIIEKEAKVAAADEKKFQQQILAQQKKDLTTFLESQKKQYKICKEKIKEEMNEDHSTPKKEKQERISKHKENLQHTQAEEEAHLLTQQRLYYDKNCRFFKRKIMIKRHEVEQQNIREELNKKRTQKEMEHAMLIRHDESTRELEYRQLHTLQKLRMDLIRLQHQTELENQLEYNKRRERELHRKHVMELRQQPKNLKAMEMQIKKQFQDTCKVQTKQYKALKNHQLEVTPKNEHKTILKTLKDEQTRKLAILAEQYEQSINEMMASQALRLDEAQEAECQALRLQLQQEMELLNAYQSKIKMQTEAQHERELQKLEQRVSLRRAHLEQKIEEELAALQKERSERIKNLLERQEREIETFDMESLRMGFGNLVTLDFPKEDYR
binds: [1] | [2] | [3]
